PubChem BioAssay AID1224830, NIAID – 2016

Screen: 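Host factors that control LPS-induced TNF expression in human macrophages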 (primary screen)
Cells: human THP-1 monocytic leukaemia cells, TNF dual-luciferase reporter clone, PMA-differentiated to macrophage-like cells
Knock-down reagent: siRNA pool against human genes, 50 nM
Duration: LPS for 4 h, given about 3 days after siRNA transfection
Treatment: bacterial LPS (TLR4 ligand), 10 ng/ml
Measurement: 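TNF firefly reporter luminescence divided by renilla, normalised to the plate median, then turned into a robust z-score for each replicate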
Scale: TNF reporter robust z-score: higher = stronger TNF reporter response to LPS
Hit rule: 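a well is active when its z-score exceeds 2.8 or falls below -1.5; control wells carry no call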
This is an unselected part of about 18,000 deposited reagents. In the full data, about 2,900 (16%) got an active call. 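Calls are made per well; low scores hint the gene aids the LPS response, high scores that it dampens it.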 Entries without a mark were called inactive. Repeated entries: four replicate wells of each siRNA pool.

EZR
- TNF reporter robust z-score: -1.11

EZR
- TNF reporter robust z-score: 0.67

EZR
- TNF reporter robust z-score: -1.09

EZR
- TNF reporter robust z-score: 0.06

ABHD10
- TNF reporter robust z-score: 1.72

ABHD10
- TNF reporter robust z-score: 6.32 (active)

ABHD10
- TNF reporter robust z-score: 2.14

ABHD10
- TNF reporter robust z-score: 2.47

MFAP5
- TNF reporter robust z-score: 1.05

MFAP5
- TNF reporter robust z-score: 1.74

MFAP5
- TNF reporter robust z-score: 0.89

MFAP5
- TNF reporter robust z-score: 0.09

BAIAP2L2
- TNF reporter robust z-score: -1.01

BAIAP2L2
- TNF reporter robust z-score: -0.24

BAIAP2L2
- TNF reporter robust z-score: -0.6

BAIAP2L2
- TNF reporter robust z-score: 0.29

PANX3
- TNF reporter robust z-score: -0.89

PANX3
- TNF reporter robust z-score: -0.07

PANX3
- TNF reporter robust z-score: -0.22

PANX3
- TNF reporter robust z-score: -1.18

C1orf174
- TNF reporter robust z-score: -1.47

C1orf174
- TNF reporter robust z-score: -0.91

C1orf174
- TNF reporter robust z-score: -1.13

C1orf174
- TNF reporter robust z-score: -1.06

DLST
- TNF reporter robust z-score: 0.7

DLST
- TNF reporter robust z-score: 0.5

DLST
- TNF reporter robust z-score: 0.3

DLST
- TNF reporter robust z-score: -0.7

RNF145
- TNF reporter robust z-score: 1.59

RNF145
- TNF reporter robust z-score: 1.1

RNF145
- TNF reporter robust z-score: -0.3

RNF145
- TNF reporter robust z-score: 1.35

ZNF419
- TNF reporter robust z-score: 0.07

ZNF419
- TNF reporter robust z-score: -0.37

ZNF419
- TNF reporter robust z-score: -0.09

ZNF419
- TNF reporter robust z-score: -0.94

MSLN
- TNF reporter robust z-score: -0.17

MSLN
- TNF reporter robust z-score: -0.58

MSLN
- TNF reporter robust z-score: -0.44

MSLN
- TNF reporter robust z-score: -0.33

YPEL4
- TNF reporter robust z-score: -0.59

YPEL4
- TNF reporter robust z-score: -0.04

YPEL4
- TNF reporter robust z-score: 1.14

YPEL4
- TNF reporter robust z-score: -1.76 (active)

BCAT2
- TNF reporter robust z-score: 2.41

BCAT2
- TNF reporter robust z-score: 3.57 (active)

BCAT2
- TNF reporter robust z-score: 1.94

BCAT2
- TNF reporter robust z-score: 3.14 (active)

3 entries already listed, arranged by “TNF reporter robust z-score”, descending:
RNF145
- TNF reporter robust z-score: 1.59

DLST
- TNF reporter robust z-score: 0.3

DLST
- TNF reporter robust z-score: -0.7
